Data reported in patent US20090304654A1, “METHODS FOR ISOLATING ADIPOSE-DERIVED STEM CELLS AND THERAPEUTIC USE THEREOF” (REGENTS OF THE UNIVERSITY OF CALIFORNIA, priority 2008, published 2009).

Tested on: ADSC
Assay: EdU labeling of ADSC in vitro
Assay type: cell-based, rat

C#Cc1cn([C@H]2C[C@H](O)[C@@H](CO)O2)c(=O)[nH]c1=O [EdU, 5-ethynyl-2-deoxyuridine]
cells EdU-labeled (0-50 uM EdU, 24 h, regardless of concentration (P>0.05)): approximately 50%
EdU signal in positively labeled cells (10 uM EdU, split at 1 to 21 days (P<0.01)): decreased with time
